Some peptides are written in HELM: one residue between dots, names in brackets for other building blocks, links after the first $.
Assay: general procedure: Boc solid-phase peptide synthesis; BHA resin; DCC/HOBT; DCC/DMAP for Pmp(4-MeBzl)
Settings: whole synthesis, scale 1 mmole

PEPTIDE1{[Pmp].[D-Tyr(Et)].F.V.N.C.[Aib].R.G.[am]}$PEPTIDE1,PEPTIDE1,1:R3-6:R3$$$V2.0
isolated mass: 423 mg

PEPTIDE1{[Pmp].[D-Tyr(Et)].F.[Aib].N.C.P.R.[am]}$PEPTIDE1,PEPTIDE1,1:R3-6:R3$$$V2.0
crude mass: 303 mg
